The whole screen tested about 350,000 compounds, of which about 220 (0.063%) were called active. This list was built around the results that the source calls inconclusive (neither active nor inactive); the mix of calls is not that of the screen. The call rests on the fitted dose curve; in most records, active means well fitted activation curve with a large enough effect; inconclusive means small, poorly fitted or top-dose-only effect; inactive means no such curve, though single readings can be large or run the other way. Potencies of inconclusive entries are doubtful fits and often do not repeat.
Test: qHTS for Activators of Integrin-Mediated Alleviation for Muscular Dystrophy; further: nearly all actives have a fitted effect of over 60% in size;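 on activation: 100% = response of the positive control SU9516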
Details: alpha7betagal myoblasts, beta-gal FDG fluorescence, 48 h; activation: at 38.3 µM (top of the series)
How it was run: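 Alpha7betagal+/- myoblasts (passage 13) were plated 16-24 hr, then exposed to compounds (1:260 dilution of DMSO stock) for 48 hours at 37C. After MPER lysis, β-galactosidase reporter activity was read as FDG fluorescence (ex 480/em 540) after 30 minutes.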
Potency means the concentration at half of the fitted maximal effect.

**Q.** Which Potency does the source give for `Cc1cccc(NC(=O)CCCn2c(=S)[nH]c3ccccc3c2=O)c1` here?
**A.** inconclusive: 10 µM [activator, single point]

**Q.** For `O=C(CN(Cc1ccccc1)C(=O)CCC(=O)Nc1nccs1)NCc1ccco1`, which Potency is on record?
**A.** inconclusive: 3.98 µM [activator, single point]

**Q.** For `Cn1c(SCc2nc3ccccc3c(=O)[nH]2)nnc1-c1ccco1`, which Potency is on record?
**A.** inconclusive: 12.6 µM [activator, single point]

**Q.** For `CCN1CCc2c(sc(NC(=O)CN3C(=O)c4ccccc4C3=O)c2C(N)=O)C1`, which Potency is on record?
**A.** inconclusive: 28.2 µM [activator, single point]

**Q.** For `N#C/C(=C\c1ccc(Sc2ccc(Cl)cc2)o1)c1nc2ccccc2[nH]1`, which Potency is on record?
**A.** inactive

**Q.** For `CCCCOc1ccccc1NC(=O)C=C(C)C`, which Potency is on record?
**A.** inactive

**Q.** For `O=C(CCc1ccc(S(=O)(=O)N2CCOCC2)cc1)NCCCN1CCCC1=O`, which Potency is on record?
**A.** inconclusive: 1 µM [activator, full curve, poor fit]

**Q.** Which Potency does the source give for `C=CCn1cccc(C(=O)Nc2ccc(SC)cc2)c1=O` here?
**A.** inactive

**Q.** Which Potency does the source give for `Cc1cccc(N2CCN(C(=O)c3ccc(CS(=O)(=O)c4ccccc4C)o3)CC2C)c1` (stereo not drawn) here?
**A.** inconclusive: 3.16 µM [activator, single point]

**Q.** For `COc1ccc(C(=O)c2c(C)c3ccccc3n2CC(O)CNC(C)C)cc1` (stereo not drawn), which Potency is on record?
**A.** inactive

**Q.** Which Potency does the source give for `CN(C)c1ncc(C(=O)O)cn1` here?
**A.** inconclusive: 12.6 µM [activator, partial curve, poor fit]

**Q.** Which Potency does the source give for `CC(=O)Nc1ccc(S(=O)(=O)Oc2ccc(/C=C3\SC(N)=NC3=O)cc2)cc1` here?
**A.** inactive

**Q.** For `CCOC(=O)N1CCN(c2cc(NCCC(=O)O)c3c4c(onc24)-c2ccccc2C3=O)CC1`, which Potency is on record?
**A.** inactive

**Q.** With `O=C(NC12CC3CC(CC(C3)C1)C2)c1ccc(Br)o1` as the compound, how does the Potency read?
**A.** inactive

**Q.** For `CN1/C(=C\C=C(C#N)C#N)C(C)(C)c2ccccc21`, which Potency is on record?
**A.** inactive

**Q.** For `COC(=O)c1ccccc1NC(=O)CSc1ccc(C)cc1`, which Potency is on record?
**A.** inconclusive: 22.4 µM [activator, partial curve, poor fit]

**Q.** With `COc1cccc(-n2c(Cc3cc(=O)[nH]c(=O)[nH]3)nnc2SCC(=O)N2CCCCC2)c1` as the compound, how does the Potency read?
**A.** inactive

**Q.** Which Potency does the source give for `CCc1cccc(OCC(=O)Nc2ccc(C(=O)O)cc2NC(=O)COc2cccc(CC)c2)c1` here?
**A.** inconclusive: 5.01 µM [activator, single point]

**Q.** Which Potency does the source give for `C=CCN(C(=O)c1ccc2c(c1)nnn2C)c1ccccc1` here?
**A.** inconclusive: 28.2 µM [activator, single point]

**Q.** With `CCN1CCCC1CNC(=O)c1ccc(N2CCOCC2)c(NS(=O)(=O)c2ccc(OC)cc2)c1` (stereo not drawn) as the compound, how does the Potency read?
**A.** inconclusive: 12.6 µM [activator, single point]

**Q.** Which Potency does the source give for `CC(=O)c1ccc(NC(=S)NC(=O)c2c(Cl)c(C)nn2C)cc1` here?
**A.** inconclusive: 11.2 µM [activator, single point]

**Q.** For `CSCCC(NC(N)=O)C(=O)Nc1ccc(C)cc1` (stereo not drawn), which Potency is on record?
**A.** inactive

**Q.** With `S=C1NNC2(CC3CC2C2CCCC32)NN1` (stereo not drawn) as the compound, how does the Potency read?
**A.** inconclusive: 28.2 µM [activator, single point]

**Q.** With `CCOc1ccccc1Oc1coc2cc(O)ccc2c1=O` as the compound, how does the Potency read?
**A.** inactive

**Q.** For `COc1ccc(CNC(=O)c2nccnc2CO)cc1`, which Potency is on record?
**A.** inactive

**Q.** With `Cc1cccc(C)c1OCC(=O)Nc1ccccc1C(F)(F)F` as the compound, how does the Potency read?
**A.** inactive

**Q.** With `CC1CC(C)CN(C(=O)CCCNC(=O)c2ccc(Cl)cc2)C1` (stereo not drawn) as the compound, how does the Potency read?
**A.** inconclusive: 3.98 µM [activator, single point]

**Q.** Which Potency does the source give for `CCOC(=O)c1nn2c(C(F)(F)F)cc(-c3ccc(OC)cc3)nc2c1Br` here?
**A.** inconclusive: 7.94 µM [activator, partial curve, poor fit]

**Q.** Which Potency does the source give for `N#Cc1ccc(C(=O)CSc2n[nH]c(=O)n2Cc2ccco2)cc1` here?
**A.** inactive

**Q.** Which Potency does the source give for `COC(=O)CSCC(=O)Nc1nnc(-c2ccccc2C)s1` here?
**A.** inactive

**Q.** For `Cc1ccc(C(=O)N2CCN(S(=O)(=O)N3CCOCC3)CC2)cc1`, which Potency is on record?
**A.** inconclusive: 3.55 µM [activator, partial curve]

**Q.** For `CCOc1cccc(CN2CCC(n3nccc3NC(=O)C3CC3)CC2)c1O`, which Potency is on record?
**A.** inactive

**Q.** For `CN1CCc2nc3ccccc3c(C(=O)OCC(=O)N(CCC#N)c3ccccc3)c2C1`, which Potency is on record?
**A.** inconclusive: 2.51 µM [activator, partial curve, poor fit]

**Q.** With `CCCCN(C)CCNC(=O)c1cc2c(=O)[nH]c3ccccc3c2n1C` as the compound, how does the Potency read?
**A.** inactive

**Q.** For `COc1cccc(CC(=O)OCC(=O)N(C)CC(=O)Nc2ccc(F)cc2)c1`, which Potency is on record?
**A.** inconclusive: 7.94 µM [activator, partial curve, poor fit]

**Q.** For `COc1cc(NC(=O)[C@H](C)NC(=O)N2CCn3c2nc2ccccc23)cc(OC)c1`, which Potency is on record?
**A.** inconclusive: 5.01 µM [activator, single point]

**Q.** For `COc1ccc(N2CCN(CCCNC(=O)CCC(=O)N3CCOc4ccc(Cl)cc43)CC2)cc1`, which Potency is on record?
**A.** inactive

**Q.** For `CN(CCOC(=O)c1ccco1)Cc1ccccc1`, which activation is on record?
**A.** inconclusive: -17.3% [activator]

**Q.** With `Cc1ccc(C)c(Nc2nc3ccc(C)cc3n3cnnc23)c1` as the compound, how does the Potency read?
**A.** inconclusive: 28.2 µM [activator, single point]

**Q.** For `CCOC(=O)c1c(CCl)nc2ccccc2c1-c1ccccc1`, which Potency is on record?
**A.** inactive

**Q.** With `CC(C)Oc1ccc(CNS(=O)(=O)c2csc(C(N)=O)c2)cc1` as the compound, how does the Potency read?
**A.** inconclusive: 28.2 µM [activator, partial curve, poor fit]

**Q.** Which Potency does the source give for `CC(=O)Nc1sc(C)c(C)c1C(=O)OCC(=O)N(Cc1ccccc1)C(C)C` here?
**A.** inconclusive: 28.2 µM [activator, single point]

**Q.** With `CCOc1ccc(Nc2ccc(S(=O)(=O)N3CCN(C)CC3)cc2[N+](=O)[O-])cc1OCC` as the compound, how does the Potency read?
**A.** inconclusive: 3.55 µM [activator, single point]

**Q.** Which Potency does the source give for `CCCn1c(N2CCN(Cc3ccc(Cl)cc3)CC2)nc2ccccc21` here?
**A.** inactive

**Q.** For `COc1ccc(-c2noc(CCCC(=O)NC3CCCCC3)n2)cc1OC`, which Potency is on record?
**A.** inactive

**Q.** With `CCOc1ccc(OCCn2nnc3ccccc3c2=O)cc1` as the compound, how does the Potency read?
**A.** inconclusive: 28.2 µM [activator, single point]

**Q.** For `CCN(Cc1ccccc1)C(=O)COC(=O)CNC(=O)c1ccc(C)s1`, which Potency is on record?
**A.** inconclusive: 5.01 µM [activator, single point]

**Q.** For `Cc1ccc[n+](CC(=O)Nc2cc(C(F)(F)F)ccc2N2CCOCC2)c1`, which Potency is on record?
**A.** inconclusive: 3.55 µM [activator, single point]

From PubChem BioAssay AID624291 (National Center for Advancing Translational Sciences (NCATS), 2012)
